Experimental data: paper doi:10.1101/694653 (bioRxiv, 2019)
Results are given in words; binding and its absence hold for the method and conditions named. Binding seen in cells or lysates may run through a third protein. Some binding calls cover weakened binding; strength is not graded here.

By UniProt entry, the sequences of proteins in these tests, tags left out. Residues count along the entry.
UniProt Q86YW7, residues 25-130: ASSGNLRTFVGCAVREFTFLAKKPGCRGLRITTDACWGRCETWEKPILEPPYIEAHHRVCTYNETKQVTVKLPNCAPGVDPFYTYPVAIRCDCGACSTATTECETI

Target: H. sapiens GPB5-His (H. sapiens) (UniProt Q86YW7)
Assay: cross-linking

binding: binds
B1: H. sapiens GPA2-FLAG (natural protein, UniProt Q96T91 24-129, looked up)
chain: QEAVIPGCHLHPFNVTVRSDRQGTCQGSHVAQACVGHCESSAFPSRYSVLVASGYRHNITSVSQCCTISGLKKVKVQLQCVGSRREELEIFTARACQCDMCRLSRY
